No constants are given. Whether binding was seen depends on the method and setting. In cells and extracts the contact can be indirect. Some entries that bind do so weakly or less than the wild type. For some of these results: Sequences can lack the tags named with a protein.

Sequences of proteins named here, by UniProt entry; tags and fusion partners are left off. A change or cut given only in a name is not applied to a line headed by its entry. Residues count along the entry.
UniProt P01106: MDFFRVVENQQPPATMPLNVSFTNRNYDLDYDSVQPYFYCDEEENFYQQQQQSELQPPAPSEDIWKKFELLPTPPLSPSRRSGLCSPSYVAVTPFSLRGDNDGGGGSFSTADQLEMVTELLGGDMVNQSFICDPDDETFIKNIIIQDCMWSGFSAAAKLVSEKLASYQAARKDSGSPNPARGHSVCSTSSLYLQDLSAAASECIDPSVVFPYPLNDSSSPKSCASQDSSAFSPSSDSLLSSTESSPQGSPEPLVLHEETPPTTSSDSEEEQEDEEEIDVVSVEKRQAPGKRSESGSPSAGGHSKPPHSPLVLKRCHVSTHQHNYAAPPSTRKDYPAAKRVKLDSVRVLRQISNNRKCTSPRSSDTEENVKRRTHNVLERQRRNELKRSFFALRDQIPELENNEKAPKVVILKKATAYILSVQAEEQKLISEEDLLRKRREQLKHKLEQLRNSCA
MYC (exogenous; Flag-MYC or HA-MYC): residues 16-454 of P01106
MYC N-terminal region (amino acids 1-221): residues 16-236 of P01106
MYC C-terminal region (amino acids 220-439): residues 235-454 of P01106

Assay [1] has as its target MYC (exogenous; Flag-MYC or HA-MYC) (UniProt P01106). As to the kind of experiment: co-IP; 293T cells transfected with the plasmids; lysates incubated with primary antibody overnight at 4°C, then Protein A/G magnetic beads 3 h at 4°C, four washes, Western blot; USP11-MYC also tested with DLGAP5 knockdown or overexpression. Background: Immunoblotting shows a protein as a band on a membrane.

A further assay addresses GST-MYC protein (UniProt P01106). The experiment in a line: pull-down; lysate of transfected 293T cells incubated overnight with 2 µg GST or GST-MYC protein, then glutathione magnetic beads 2 h; Western blot; only the target purified.
Assay [2] addresses MYC C-terminal region (amino acids 220-439) (UniProt P01106). The experiment in a line: co-IP; 293T cells transfected with the plasmids; lysates incubated with primary antibody overnight at 4°C, then Protein A/G magnetic beads 3 h at 4°C, four washes, Western blot; USP11-MYC also tested with DLGAP5 knockdown or overexpression.
Assay [3] concerns the target MYC N-terminal region (amino acids 1-221) (UniProt P01106). Described as above.
The target of assay [4] is endogenous MYC (human (endogenous in UM-UC-3)) (UniProt P01106). The experiment in a line: co-IP; endogenous proteins in BLCA cells (UM-UC-3; UM-UC-3-P and GEM-resistant UM-UC-3-R); Protein A/G magnetic beads, Western blot.

B1: DLGAP5-NT (amino acids 1-300) (domain or fragment, UniProt Q15398 1-300)
chain: MSSSHFASRHRKDISTEMIRTKIAHRKSLSQKENRHKEYERNRHFGLKDVNIPTLEGRILVELDETSQGLVPEKTNVKPRAMKTILGDQRKQMLQKYKEEKQLQKLKEQREKAKRGIFKVGRYRPDMPCFLLSNQNAVKAEPKKAIPSSVRITRSKAKDQMEQTKIDNESDVRAIRPGPRQTSEKKVSDKEKKVVQPVMPTSLRMTRSATQAAKQVPRTVSSTTARKPVTRAANENEPEGKVPSKGRPAKNVETKPDKGISCKVDSEENTLNSQTNATSGMNPDGVLSKMENLPEINTAK
As for B1, the binding entry in assay [1] is “binds”.

B2: GFP-DLGAP5 (protein, UniProt Q15398 1-846)
chain: MSSSHFASRHRKDISTEMIRTKIAHRKSLSQKENRHKEYERNRHFGLKDVNIPTLEGRILVELDETSQGLVPEKTNVKPRAMKTILGDQRKQMLQKYKEEKQLQKLKEQREKAKRGIFKVGRYRPDMPCFLLSNQNAVKAEPKKAIPSSVRITRSKAKDQMEQTKIDNESDVRAIRPGPRQTSEKKVSDKEKKVVQPVMPTSLRMTRSATQAAKQVPRTVSSTTARKPVTRAANENEPEGKVPSKGRPAKNVETKPDKGISCKVDSEENTLNSQTNATSGMNPDGVLSKMENLPEINTAKIKGKNSFAPKDFMFQPLDGLKTYQVTPMTPRSANAFLTPSYTWTPLKTEVDESQATKEILAQKCKTYSTKTIQQDSNKLPCPLGPLTVWHEEHVLNKNEATTKNLNGLPIKEVPSLERNEGRIAQPHHGVPYFRNILQSETEKLTSHCFEWDRKLELDIPDDAKDLIRTAVGQTRLLMKERFKQFEGLVDDCEYKRGIKETTCTDLDGFWDMVSFQIEDVIHKFNNLIKLEESGWQVNNNMNHNMNKNVFRKKVVSGIASKPKQDDAGRIAARNRLAAIKNAMRERIRQEECAETAVSVIPKEVDKIVFDAGFFRVESPVKLFSGLSVSSEGPSQRLGTPKSVNKAVSQSRNEMGIPQQTTSPENAGPQNTKSEHVKKTLFLSIPESRSSIEDAQCPGLPDLIEENHVVNKTDLKVDCLSSERMSLPLLAGGVADDINTNKKEGISDVVEGMELNSSITSQDVLMSSPEKNTASQNSILEEGETKISQSELFDNKSLTTECHLLDSPGLNCSNPFTQLERRHQEHARHISFGGNLITFSPLQPGEF
For the molecule B2, the binding result (with GST-MYC protein; in assay [1]; in assay [2]; in assay [3]) was “binds” each time.

B3: endogenous DLGAP5 (protein, UniProt Q15398 1-846)
chain: B2 chain
B3: the binding result in assay [4] is on record as “binds”.

B4: USP11 M3 region (amino acids 504-963) (domain or fragment, UniProt P51784 504-963)
chain: DPRRKPEQHRLVVPKKGKISDLCVALSKHTGISPERMMVADVFSHRFYKLYQLEEPLSSILDRDDIFVYEVSGRIEAIEGSREDIVVPVYLRERTPARDYNNSYYGLMLFGHPLLVSVPRDRFTWEGLYNVLMYRLSRYVTKPNSDDEDDGDEKEDDEEDKDDVPGPSTGGSLRDPEPEQAGPSSGVTNRCPFLLDNCLGTSQWPPRRRRKQLFTLQTVNSNGTSDRTTSPEEVHAQPYIAIDWEPEMKKRYYDEVEAEGYVKHDCVGYVMKKAPVRLQECIELFTTVETLEKENPWYCPSCKQHQLATKKLDLWMLPEILIIHLKRFSYTKFSREKLDTLVEFPIRDLDFSEFVIQPQNESNPELYKYDLIAVSNHYGGMRDGHYTTFACNKDSGQWHYFDDNSVSPVNENQIESKAAYVLFYQRQDVARRLLSPAGSSGAPASPACSSPPSSEFMDVN
Turning to B4, in assay [1], the binding result is on record as “binds”.

(Values after PMC11840727.)
